Test results from US20130251723A1.
Numbering of substitutions follows the chain as printed. Results are given in words; binding and its absence hold for the method and conditions named. Binding can be weak; no strength is given.

B1: ROR1_A1 monoclonal antibody (antibody, V domains shown)
VH: EVKLVESGGGLVRPGGSLKLSCAVSGFTFSSYAMSWVRQTPEKRLEWVAAINFNRGTTYYSDTVKGRFTISRDNAKNTLYLQLSSLRSEDTAFYYCSRHRYSDYDYAMDYWGQGTSVTVSS
VL: DIVMSQSPSSMYASLGERVTITCKASQDINSYLNWFQQKPGKSPKTLIYRANRLVDGVPSRFSGSGSGHDYFLTIRSLEYEDMGIYYCLQYDEFPYTFGGGTKLEIKR
B2: ROR1_A10 monoclonal antibody (antibody, V domains shown)
VH: EVQLVETGGGLVKPGGSLKLSCAASGFAFSSYAMSWVRQTPEKRLEWVAAINNRGGGTYYPDTVRGRFTISRDNAKNTLYLQMSSLRSADTALYYCVRHDNLNYDYAMDSWGQGTSVTVSS
VL: NIVMTQSPSSMYASLGERVTITCKASQDIYSYLSWFQQKPGKSPKTLIYRANRLVDGVPSRFSGSGSGQDYSLTISSLDYEDVGIYYCLQYDEFPYTFGSGTKLEIER
B3: ROR1_A12 monoclonal antibody (antibody, V domains shown)
VH: B1 VH with K3Q, R13K, V24A, F53S, L83M, S97T
VL: B1 VL with V3K, S5T, N34S, K45M, I48T, Y49H, H69Q, F72S, R76S, Y80N
B4: ROR1_A3 monoclonal antibody (antibody, V domains shown)
VH: B1 VH with E1D, K3M, R13K, V24A, F53I, F93L
VL: B1 VL with V3Q, M4L, S5T, T22A, N34S, Y49H, H69Q, F72S, R76S, M83I
B5: ROR1_A8 monoclonal antibody (antibody, V domains shown)
VH: DVQVVESGGGLVKPGGSLKLSCAASGFTFSSYAMSWVRQTPEKRLEWVAAINPNGGSTYYPDTVKGRFTISRDNAKNTLYLQMSGLRSEDTALYYCARLPWSPYTLDYWGQGTSVTVSS
VL: NIVMTQSPVSLSMAIGEKVTIRCITNTDIDDAMNWYQQKPGEPPKLLISEGNTLRPGVPSRFSSSGYGTDFVFTIENMLSEDVADYYCLQTDNLPLTFGSGTKLAIKR
B6: ROR1_A2 monoclonal antibody (antibody, V domains shown)
VH: EVQLLETGGGLVKPGGSLKLSCAASGFTFSTYAMSWVRQTPEKRLEWVAGINSNRGTTYYPDTVKGRFTISRDNAKNTLSLQMTSLRSEDTALYYCVRHRYTNYDYAMDYWGQGTSVTVSS
VL: B1 VL with V3K, S5T, N34S, H69Q, F72S, R76S
B7: ROR1_A4 monoclonal antibody (antibody, V domains shown)
VH: EVKLVESGGGLVKPGGSLKLSCAASGFTFSNYGMSWVRQTPERRLEWVAAMNNNGASTYYPDTVKGRFTISRDNAKNTLYLQMSSLRSEDTALYFCVRHNNYVDYAMDYWGQGTSVTVSS
VL: B1 VL with V3L, M4L, S5T, A13T, N34S, R53K, H69Q, F72S, R76S, Y80S
B8: ROR1_A5 monoclonal antibody (antibody, V domains shown)
VH: EVKLVESGGGLVKPGGSLKLSCAASGFTFSNYDMSWVRQSPEKRLEWVAAINRKGHSTYYPDTVQGRFTISRDNAKNTLYLQMSSLRSEDTALYYCVRLDDNYYFFDYWGQGTTLTVSS
VL: B1 VL with V3K, S5T, N34S, N52K, V55I, H69Q, F72S, R76S
B9: ROR1_A6 monoclonal antibody (antibody, V domains shown)
VH: B6 VH with Q3M, L5V, T7S, T31P, G50A, S80Y, T84S, L93F, T102N
VL: B1 VL with N34S, I48T, D56E, H69Q, F72S, R76S
B10: ROR1_A7 monoclonal antibody (antibody, V domains shown)
VH: EVMLVESGGGLVKPGGSLKISCAASGFSFSSYAMSWVRQTPEKSLEWVAAININRGTPYYPDTVKGRFTISRDNAKNTLYLQMSSLRSEDTALYYCVRHRNSNNDYAMDYWGQGTSVTVSS
VL: B2 VL with N1D, A13T, Y30N, V55I, D79E, V83M, Y96F, E107K
B11: ROR1_A9 monoclonal antibody (antibody, V domains shown)
VH: EVQLVETGGDLVKPGGSLKLSCVASGFTFSSNAMSWVRQTPEKRLEWVAAINSKGGGTYYPDTVRGRFTISRDNAKNTLYLQVTSLRSEDTALYYCVSHGDNKYFYAMDYWGQGTSVTVSS
VL: B2 VL with Y30N, D79E, V83M, S100G, E107K
B12: humanized ROR1_A1 antibody (antibody, V domains shown)
VH: VQLVESGGGLVQPGGSLRLSCAASGFTFSSYAMSWVRQAPGKGLEWVAAINFNRGTTYYSDTVKGRFTISRDNAKNSLYLQMNSLRAEDTAVYYCSRHRYSDYDYAMDYWGQGTMVTVSS
VL: QMTQSPSSLSASVGDRVTITCKASQDINSYLNWFQQKPGKAPKSLIYRANRLVDGVPSKFSGSGSGHDYTLTISSLQPEDFATYYCLQYDEFPYTFGQGTKL

The binders below were run against Tyrosine-protein kinase transmembrane receptor ROR1 (human, cell surface) (human) (assay: flow cytometry on A549 cells).

binding, binds:
B1
B2
B3
B4
B5
B6
B7
B8
B9
B10
B11

The binders below were run against Tyrosine-protein kinase transmembrane receptor ROR1 (human, cell surface) (human) (assay: flow cytometry on A549 cells (figure legend)).

binding, binds:
B1
B2
B3
B4
B5
B6
B7
B8
B9
B10
B11

Each binder was assayed against Tyrosine-protein kinase transmembrane receptor ROR1 (human, cell surface) (human) (assay: immunohistochemistry at 20 ug/ml on FFPE or frozen tumour tissue sections).

binding, binds:
B1

Each binder was assayed against Tyrosine-protein kinase transmembrane receptor ROR1 (human, cell surface) (human) (assay: flow cytometry on CALU1, H358, PANC-1, H226, H69 and HT-29 cells).

binding, binds:
B1
B4
B5

What follows are binders tested against Tyrosine-protein kinase transmembrane receptor ROR1 (human, cell surface) (human) (assay: flow cytometry on cancer cell lines (figure legend)).

binding, binds:
B1
B4
B5

What follows are binders tested against Tyrosine-protein kinase transmembrane receptor ROR1 (human, cell surface) (human) (assay: flow cytometry on A549 and HT-29 cells).

binding, binds:
B12

Each binder was assayed against Tyrosine-protein kinase transmembrane receptor ROR1 (human, cell surface) (human) (assay: flow cytometry on A549 and HT-29 cells (figure legend)).

binding, binds:
B12
